{"sequences": {"note": "Chains of the proteins cited; added tags and fusions are not shown.", "UniProt Q91Z31": "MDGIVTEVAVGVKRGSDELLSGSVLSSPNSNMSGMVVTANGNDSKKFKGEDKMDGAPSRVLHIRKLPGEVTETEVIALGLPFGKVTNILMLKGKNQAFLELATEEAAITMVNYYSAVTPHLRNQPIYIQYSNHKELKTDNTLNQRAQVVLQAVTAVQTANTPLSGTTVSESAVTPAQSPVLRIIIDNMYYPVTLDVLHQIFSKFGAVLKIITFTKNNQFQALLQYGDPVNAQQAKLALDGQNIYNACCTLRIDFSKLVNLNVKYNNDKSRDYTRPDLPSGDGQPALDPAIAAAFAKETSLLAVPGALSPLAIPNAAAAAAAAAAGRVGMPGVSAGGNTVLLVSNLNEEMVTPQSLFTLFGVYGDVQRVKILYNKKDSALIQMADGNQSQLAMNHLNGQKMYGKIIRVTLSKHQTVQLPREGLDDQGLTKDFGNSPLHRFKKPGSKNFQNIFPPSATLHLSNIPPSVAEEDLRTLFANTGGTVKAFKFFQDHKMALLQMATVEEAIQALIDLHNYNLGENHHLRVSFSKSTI", "UniProt P97801": "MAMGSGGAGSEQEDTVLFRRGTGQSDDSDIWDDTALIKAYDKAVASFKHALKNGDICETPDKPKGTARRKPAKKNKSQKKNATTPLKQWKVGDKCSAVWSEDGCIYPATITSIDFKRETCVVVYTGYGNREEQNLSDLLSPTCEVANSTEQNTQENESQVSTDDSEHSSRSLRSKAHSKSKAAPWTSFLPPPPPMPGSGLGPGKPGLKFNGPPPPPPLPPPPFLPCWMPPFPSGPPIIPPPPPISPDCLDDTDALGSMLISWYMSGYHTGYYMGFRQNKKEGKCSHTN"}, "source": "paper PMC11377325", "key": {"[1]": {"target": "Ptbp2 (mouse (endogenous in primary mouse motoneurons)) (UniProt Q91Z31)", "test": "proximity ligation; Duolink in situ PLA on fixed, permeabilised primary mouse motoneurons at DIV 6 with antibodies against Ptbp2 and Smn; no signal when either antibody was omitted"}, "[2]": {"target": "Ptbp2 (mouse (endogenous in primary mouse motoneurons)) (UniProt Q91Z31)", "test": "co-IP; anti-Ptbp2 antibody on Protein G Dynabeads, lysate of primary mouse motoneurons (DIV 7; 10 mM HEPES pH 7.0, 100 mM KCl, 5 mM MgCl2, 0.5% NP-40), without or with RNase A pre-treatment, overnight at 4°C; Smn detected by immunoblot"}}, "note": "No constants are given. Whether binding was seen depends on the method and setting. Binding seen in cells or lysates may run through a third protein. Some results given as binding are weak or reduced against the parent protein; the word gives no strength."}
{"substance": "Smn (from UniProt P97801 1-288)", "values": [{"measurement": "binding", "setting": "[1]", "result": "binds"}, {"measurement": "binding", "setting": "[2]", "result": "binds"}]}
